Primary screen of a compound library

Amino acid sequences for entries named in this document (tags omitted). Residues count along the entry.
UniProt A4I591, 1-473: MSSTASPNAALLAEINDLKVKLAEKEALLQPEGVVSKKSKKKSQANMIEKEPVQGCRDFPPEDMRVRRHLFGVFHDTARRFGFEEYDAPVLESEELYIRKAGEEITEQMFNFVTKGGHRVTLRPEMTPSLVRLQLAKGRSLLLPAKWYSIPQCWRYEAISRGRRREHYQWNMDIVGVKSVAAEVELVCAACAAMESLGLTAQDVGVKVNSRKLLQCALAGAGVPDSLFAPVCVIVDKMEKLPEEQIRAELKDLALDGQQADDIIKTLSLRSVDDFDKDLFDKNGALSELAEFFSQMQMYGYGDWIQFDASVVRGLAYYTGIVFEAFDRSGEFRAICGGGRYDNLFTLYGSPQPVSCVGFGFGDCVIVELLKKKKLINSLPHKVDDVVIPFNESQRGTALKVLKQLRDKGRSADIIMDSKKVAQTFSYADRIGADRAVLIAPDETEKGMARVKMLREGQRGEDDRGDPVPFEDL
UniProt Q4DA54, 1-478: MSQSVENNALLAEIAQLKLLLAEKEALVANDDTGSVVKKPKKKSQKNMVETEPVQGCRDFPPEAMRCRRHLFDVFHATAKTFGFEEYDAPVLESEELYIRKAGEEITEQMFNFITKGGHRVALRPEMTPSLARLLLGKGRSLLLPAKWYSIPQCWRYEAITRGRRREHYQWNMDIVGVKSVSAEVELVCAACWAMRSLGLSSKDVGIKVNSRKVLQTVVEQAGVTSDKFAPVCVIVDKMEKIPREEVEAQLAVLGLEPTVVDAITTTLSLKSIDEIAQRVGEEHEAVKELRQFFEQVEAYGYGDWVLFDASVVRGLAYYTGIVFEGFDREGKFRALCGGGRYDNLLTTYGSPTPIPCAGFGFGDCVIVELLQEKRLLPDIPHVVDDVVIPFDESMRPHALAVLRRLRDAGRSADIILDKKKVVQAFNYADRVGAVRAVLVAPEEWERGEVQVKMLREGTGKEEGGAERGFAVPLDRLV
UniProt Q8IDJ8, 1-583: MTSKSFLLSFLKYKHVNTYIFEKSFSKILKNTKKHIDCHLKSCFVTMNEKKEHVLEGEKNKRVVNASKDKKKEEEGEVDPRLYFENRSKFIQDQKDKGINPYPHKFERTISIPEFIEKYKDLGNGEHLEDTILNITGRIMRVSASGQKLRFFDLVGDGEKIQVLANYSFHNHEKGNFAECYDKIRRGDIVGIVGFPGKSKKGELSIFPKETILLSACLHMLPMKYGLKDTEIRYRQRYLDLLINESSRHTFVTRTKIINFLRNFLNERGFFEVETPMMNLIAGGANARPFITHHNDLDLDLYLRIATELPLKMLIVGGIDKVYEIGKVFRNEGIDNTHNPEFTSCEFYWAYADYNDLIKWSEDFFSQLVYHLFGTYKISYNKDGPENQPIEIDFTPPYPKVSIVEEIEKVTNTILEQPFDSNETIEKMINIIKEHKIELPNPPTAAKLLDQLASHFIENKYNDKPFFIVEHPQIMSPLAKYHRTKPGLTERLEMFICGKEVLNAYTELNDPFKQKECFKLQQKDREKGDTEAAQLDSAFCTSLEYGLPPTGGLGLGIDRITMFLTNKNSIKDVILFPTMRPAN

LiHisRS: 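Enzyme assay of histidyl-tRNA synthetase; the read-out is not stated. Target: Histidine-tRNA ligase, Leishmania infantum (UniProt A4I591). Tested at 30 µM. Direction is inferred from retests: higher values go with stronger inhibition. The assay is labelled LdHisRS but filed under L. infantum. About 69,000 compounds were tested under these conditions; 0.6% (about 410) showed 50% or more at least once.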
TcHisRS: 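Enzyme assay of histidyl-tRNA synthetase; the read-out is not stated. Target: Histidine-tRNA ligase, Trypanosoma cruzi CL Brener (UniProt Q4DA54). Concentration: 30 µM. Direction is inferred from retests: higher values go with stronger inhibition. About 69,000 compounds were tested under these conditions; 0.045% (about 31) showed 50% or more at least once.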
PfKRS1: 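Lysine-tRNA ligase, Plasmodium falciparum 3D7 (UniProt Q8IDJ8). Enzyme assay of the cytosolic lysyl-tRNA synthetase in 384-well plates, read by luminescence. Concentration: 30 µM. Higher reads as stronger inhibition, judged from the few compounds that gave an IC50. Of about 69,000 compounds tested this way, about 49 (0.071%) reached 50% or more in at least one test.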
Leishmania in macrophages: 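Cell assay of Leishmania donovani living inside macrophages; the read-out is not stated. Tested at 30 µM. The record gives no direction; compounds that gave an IC50 in retests scored well above the rest, so higher reads as stronger inhibition. About 69,000 compounds were tested under these conditions; 1.5% (about 1,000) showed 50% or more at least once.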

Results are given as percent effect.
The controls that fix the scale are not given in the record; negative values are as filed.
The compounds are a random part of those screened.
Two or more numbers in one place are separate tests of the same structure; such repeats can differ widely.
A dash means the value is not listed here; it may have been measured.

| # | Compound | LiHisRS | TcHisRS | PfKRS1 | Leishmania in macrophages |
|---|---|---|---|---|---|
| 1 | `CNC(=O)CN1CCOCC2(CCCN(CCc3ccccc3)C2)C1` (stereo not given) | 15.6% | 3.365% | 2.541% | - |
| 2 | `COCC1CC2(CCN(Cc3nccs3)CC2)CN1Cc1ccccn1.O=C(O)C(F)(F)F.O=C(O)C(F)(F)F.O=C(O)C(F)(F)F` (stereo not given) | - | - | - | 50.9% |
| 3 | `N#Cc1cccc(C(=O)N2CCC(Nc3cccnn3)CC2)c1` | -5.217% | 1.724% | 2.418% | 2.461% |
| 4 | `CCc1nc2n(n1)CC(NCc1ccccc1OCC(=O)NC)CC2` (stereo not given) | 7.937% | 3.03% | 5.103% | 18.05% |
| 5 | `Cn1cc(C(=O)N2CCN(c3ccc(F)cc3)CC2)ccc1=O` | 19.18% | 11.11% | 4.736% | 0.07378% |
| 6 | `c1cncc(O[C@H]2CC[C@H]3[C@H]2OCCN3C2CCC2)c1` | 8.065% | -0.8772% | 3.459% | - |
| 7 | `CCN(CC)[C@H]1C[C@@H](Cc2cc(CO)on2)C1(C)C` | 27.03% | -2.488% | 2.923% | 28.13% |
| 8 | `Cc1nc(N)nc(C)c1CC(=O)NCc1ccc2nonc2c1` | 12.86% | 4.255% | 5.077% | 9.373% |
| 9 | `CC(=O)c1cc(CC(=O)NCc2ccc(F)cc2)cs1` | 19.23% | 0.8333% | -0.8326% | 26.54% |
| 10 | `CN(C)CCNc1cc(-c2ncccc2C(F)(F)F)c2cc[nH]c2n1` | 6.25% | 7.447% | -0.8216% | 12.85% |
| 11 | `O=C(O)C(F)(F)F.[H][C@@]12COC[C@]1(COCC)CN(Cc1ccc(F)c(F)c1)C2` | - | - | - | 24.52% |
| 12 | `CCOCC(=O)N1CC[C@H]2[C@@H]1CCC(=O)N2Cc1csc(C)n1` | 5.882% | 5.911% | -1.416% | - |
| 13 | `O=C1COC2(CCN(Cc3ccoc3)CC2)CN1CCn1cccn1` | 21.37% | 4.813% | 3.84% | - |
| 14 | `CN(Cc1ccc(C#N)cc1)Cn1nccc1-c1cccnc1` | 15.79% | 5.882% | 6.661% | 3.492% |
| 15 | `NC(=O)c1cc(C2CCCN(Cc3ccc4c(c3)OCCO4)C2)n[nH]1` (stereo not given) | 6.024% | 5.473% | 2.185% | 7.874% |
| 16 | `CCn1cc(S(=O)(=O)NCC(c2ccccc2)N2CCOCC2)c(C)n1` (stereo not given) | 7.194% | 10.34% | -1.523% | 7.633% |
| 17 | `CN(C)C(=O)N1CCC2(CC1)CN(CC1CC1)CC21CCNC1=O` (stereo not given) | 15.53% | 2.913% | 1.4% | - |
| 18 | `COc1cccc2c1ccn2CC(=O)N1CCCC(C(=O)O)C1` (stereo not given) | 7.895% | 2.439% | -1.959% | 10.01% and 13.76% |
| 19 | `O=C(O)C(F)(F)F.[H][C@@]12CCN(Cc3ccccc3F)C[C@]1(COC)CCO2` | - | - | - | 26.39% |
| 20 | `Cc1ccc(N2C[C@@H]3CN(C(=O)c4ccccc4)CCO[C@@H]3C2)nn1` | 0% | 7.362% | -5.669% | - |
| 21 | `CCCOc1ccc(CC2=NC(C)(CO)CO2)cc1` (stereo not given) | -7.865% | 1.554% | 1.257% | -8.306% |
| 22 | `O=C(N[C@@H]1CCC[C@@H](N2CCOCC2)[C@@H]1O)c1ncccn1` | 7.368% | 2.985% | 0.6068% | 27.07% and -9.668% |
| 23 | `CN1CC(Nc2nc3c(cnn3-c3ccccc3)c(=O)[nH]2)CCC1=O` (stereo not given) | 2.857% | 7.216% | 1.557% | 14.63% |
| 24 | `Cc1sc2nc(CCN)nc(N(C)CCCC3CCCO3)c2c1C` (stereo not given) | 23.89% | 5.6% | 4.368% | 63.54% |
| 25 | `COCc1noc(CN2CC(Cc3ccccc3)CC2=O)n1` (stereo not given) | 22.89% | 6.098% | 8.79% | 24.89% |
| 26 | `COC(=O)c1cc(OCC2CCC2)cc(C(=O)N[C@@H]2CNCC[C@H]2O)c1` | 5.769% | 6.612% | -3.257% | 1.181% |
| 27 | `CN(CC(C)(CO)CO)C(=O)Nc1cc(Cl)cc(Cl)c1` | 12.64% | 8.247% | 5.488% | 20.26% |
| 28 | `[H][C@@]12CS(=O)(=O)C[C@]1([H])N(Cc1ccc(Cl)cc1)CCN2CCOC` | - | - | - | 3.825% |
| 29 | `CN(CCCOc1ccccc1)S(=O)(=O)c1cnn(C)c1` | 10.62% | -1.754% | -2.964% | -95.25% |
| 30 | `CC(C)CCN(c1cn[nH]c1)S(=O)(=O)c1cccc(C#N)c1` | 6.25% | -3.448% | -1.598% | -17.77% |
| 31 | `CN1CCOC(C(=O)N2CCC3(CCCC3)CC2)C1` (stereo not given) | 5.759% | 9.091% | -1.097% | 33.46% |
| 32 | `CCN1CCn2c(C)cnc2C12CCN(C(=O)Cc1ccccc1)CC2.O=C(O)C(F)(F)F.O=C(O)C(F)(F)F` | - | - | - | 16.57% |
| 33 | `CC(C)n1ccnc1C1CCN(C(=O)c2ccccc2N(C)C)CC1` | 10.4% | 1.508% | -3.15% | -5.162% |
| 34 | `c1ccc(-c2nc3c(c(NCc4nnc5n4CCC5)n2)CCNC3)cc1` | 25.17% | 11.44% | 5.961% | 11% |
| 35 | `Cc1ccc(CC(=O)Nc2cc(C(C)C)n[nH]2)cn1` | 13.91% | 4.023% | -0.3436% | 62.25% |
| 36 | `O=C(NC1CC1)C1CCN(c2cccc(C(F)(F)F)n2)CC1` | 17.74% | 7.143% | 7.768% | 17.51% |
| 37 | `CCC(=O)N1CCC(NCc2cc(C(F)(F)F)ccc2Cl)C1` (stereo not given) | -2.41% | 7.182% | 4.601% | 15.02% |
| 38 | `CC(C)c1nc(C2CCCN2C(=O)c2ccc(C#N)cn2)no1` (stereo not given) | 20.18% | 9.038% | 1.262% | 17.17% |
| 39 | `Cn1c(C2CC2)nc2c1CCN(CC(=O)NC1CCCCNC1=O)C2` (stereo not given) | 11.67% | 3.922% | 3.627% | 28.87% |
| 40 | `CN1CCCCC1c1nc(Cc2cccc(F)c2)no1` (stereo not given) | 8.772% | 1.093% | 4.503% | 13.53% |

Once more, the final 5:

For O=C(NC1CC1)C1CCN(c2cccc(C(F)(F)F)n2)CC1 the result was LiHisRS: 17.74%; TcHisRS: 7.143%; PfKRS1: 7.768%; Leishmania in macrophages: 17.51%.
For CCC(=O)N1CCC(NCc2cc(C(F)(F)F)ccc2Cl)C1 (stereo not given) the result was LiHisRS: -2.41%; TcHisRS: 7.182%; PfKRS1: 4.601%; Leishmania in macrophages: 15.02%.
For CC(C)c1nc(C2CCCN2C(=O)c2ccc(C#N)cn2)no1 (stereo not given) the result was LiHisRS: 20.18%; TcHisRS: 9.038%; PfKRS1: 1.262%; Leishmania in macrophages: 17.17%.
For Cn1c(C2CC2)nc2c1CCN(CC(=O)NC1CCCCNC1=O)C2 (stereo not given) the result was LiHisRS: 11.67%; TcHisRS: 3.922%; PfKRS1: 3.627%; Leishmania in macrophages: 28.87%.
For CN1CCCCC1c1nc(Cc2cccc(F)c2)no1 (stereo not given) the result was LiHisRS: 8.772%; TcHisRS: 1.093%; PfKRS1: 4.503%; Leishmania in macrophages: 13.53%.

Source: ChEMBL document CHEMBL3988442, “University of Dundee, Small-Polar-MMV Screening Library” (2021).